No constants are given. Whether binding was seen depends on the method and setting.
Target: T1, Nogo receptor (NgR) (UniProt Q9BZR6)
T1 sequence: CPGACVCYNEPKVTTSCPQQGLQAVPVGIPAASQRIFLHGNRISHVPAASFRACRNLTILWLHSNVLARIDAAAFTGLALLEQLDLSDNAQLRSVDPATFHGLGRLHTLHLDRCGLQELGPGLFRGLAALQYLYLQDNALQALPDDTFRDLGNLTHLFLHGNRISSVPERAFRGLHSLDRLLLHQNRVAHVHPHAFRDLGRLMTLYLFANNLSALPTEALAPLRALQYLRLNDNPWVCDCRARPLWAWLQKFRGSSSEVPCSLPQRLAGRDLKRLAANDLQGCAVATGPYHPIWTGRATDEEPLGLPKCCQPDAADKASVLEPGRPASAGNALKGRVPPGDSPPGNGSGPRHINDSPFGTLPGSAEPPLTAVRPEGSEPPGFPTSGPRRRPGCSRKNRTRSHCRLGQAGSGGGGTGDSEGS
Test: alkaline phosphatase (AP) fusion protein binding to transfected cells; COS-7 cells transfected with DCC or NgR; 20 nM AP, CBLN4-AP or Nogo 66-AP from conditioned media, 90 min, room temperature, binding buffer with 2 µg/ml heparin; NBT/BCIP development

binding: no binding (tested: 20 nM)
Substance: Alkaline Phasphatase (AP) (enzyme)

Source: publication PMC3882260
